The text below walks through data of the supplement of paper PMC7238544.

Counter-ions that a name gives are not always drawn. ± gives the standard deviation of the averaged measurements. Some of the results follow. The data scatter; read single values as rough.

The experiment relates to hAMSC donor 2. Description: transfection efficiency (EGFP+ cells / Hoechst count) fold change vs vehicle control (ratio); hAMSC are human adipose-derived mesenchymal stem cells given an EGFP-luciferase plasmid by lipofection; higher = enhanced transfection. To be noted: priming compound concentration 13 µM.
With `CN(C)[C@@H]1C(O)=C(C(N)=O)C(=O)[C@@]2(O)C(O)=C3C(=O)c4c(O)ccc(Cl)c4[C@@H](O)[C@H]3C[C@@H]12` [Demeclocycline], the transfection efficiency is 0.842 ± 0.13.

As to `OCCN1CCN(CCCN2c3ccccc3Sc3ccc(C(F)(F)F)cc32)CC1` [Fluphenazine dihydrochloride], the transfection efficiency was 0.687 ± 0.18. On to `CCN(CC)CCOc1ccc(C(=C(Cl)c2ccccc2)c2ccccc2)cc1` [Clomifene citrate], for which the transfection efficiency was determined as 0.616 ± 0.12. For the compound `N#Cc1ccc(C(c2ccc(C#N)cc2)n2cncn2)cc1` [Letrozole], the transfection efficiency came to 1.23 ± 0.3. Under `COc1cc([C@@H]2c3cc4c(cc3[C@@H](O[C@@H]3O[C@@H]5CO[C@@H](C)O[C@H]5[C@H](O)[C@H]3O)[C@H]3COC(=O)[C@H]23)OCO4)cc(OC)c1O` [Etoposide] stands 1.35 ± 0.19; under `C[C@]12C[C@H](O)[C@H]3[C@@H](CCC4=CC(=O)CC[C@@]43C)[C@@H]1CC[C@@H]2C(=O)CO` [Corticosterone], 1.57 ± 0.54; under `CCN1CCCC1CNC(=O)c1cc(S(=O)(=O)CC)c(N)cc1OC` (stereo unspecified) [Amisulpride], 0.913 ± 0.17.

In the case of `CN(C)CC[C@@H](c1ccc(Br)cc1)c1ccccn1` [Dexbrompheniramine maleate], the transfection efficiency worked out at 1.38 ± 0.17.

Consider `CC1=C(C/C=C(\C)CCC[C@H](C)CCC[C@H](C)CCCC(C)C)C(=O)c2ccccc2C1=O` [Phylloquinone], for which the transfection efficiency is 0.813 ± 0.041. Under `C[C@H](CS)C(=O)N1CCC[C@H]1C(=O)O` [Captopril] stands 0.907 ± 0.23; under `c1ccc2c(CC3=NCCN3)cccc2c1` [Naphazoline hydrochloride], 1.11 ± 0.19. For `C[C@H]1O[C@@H](O[C@H]2[C@@H](O)C[C@H](O[C@H]3[C@@H](O)C[C@H](O[C@H]4CC[C@@]5(C)[C@H](CC[C@@H]6[C@@H]5C[C@@H](O)[C@]5(C)[C@@H](C7=CC(=O)OC7)CC[C@]65O)C4)O[C@@H]3C)O[C@@H]2C)C[C@H](O)[C@@H]1O` [Digoxin] the value was 0.0921 ± 0.035; for `CC#C[C@]1(O)CC[C@H]2[C@@H]3CCC4=CC(=O)CCC4=C3[C@@H](c3ccc(N(C)C)cc3)C[C@@]21C`, 1.12 ± 0.079; for `COc1ccccc1N1CCN(CC(O)COc2cccc3ccccc23)CC1` (stereo unspecified) [Naftopidil], 1.18 ± 0.29. Turning to `CN1CCN(c2nc3cc(C(F)(F)F)ccc3n3cccc23)CC1`, the transfection efficiency turned out to be 0.696 ± 0.18. For the compound `CC(C)[C@H](N)C(=O)OCCOCn1cnc2c(=O)nc(N)[nH]c21` [Valaciclovir hydrochloride], the transfection efficiency worked out at 1.55 ± 0.23.

Take `O=c1[nH]cc(F)c(=O)[nH]1` [5-Fluorouracil]: the transfection efficiency was 1.62 ± 0.14. Under `CC1(C)S[C@@H]2[C@H](NC(=O)[C@H](N)c3ccc(O)cc3)C(=O)N2[C@H]1C(=O)O` [Amoxicillin] stands 0.93 ± 0.074; under `CN1CCC[C@H]1c1cccnc1` [Nicotine], 1 ± 0.14. Under `CC1(C)O[C@@H]2[C@@H](CO[C@@]3(COS(N)(=O)=O)OC(C)(C)O[C@@H]23)O1` [Topiramate] stands 1.14 ± 0.065; under `Nc1ncnc2c1ncn2[C@@H]1O[C@H](CO)C[C@@H]1O` [3'-Deoxydenosine], 0.847 ± 0.11. Under `O=C1c2c(O)cc(O)cc2O[C@H](c2ccc(O)c(O)c2)[C@H]1O` (racemic) [Taxifolin-(+/-)] stands 0.854 ± 0.24.

`O=C(c1ccccc1)c1ccc2n1CCC2C(=O)O` (stereo unspecified) [Ketorolac tromethamine]: the transfection efficiency stood at 0.916 ± 0.092. Under `CC(=O)N[C@H]1[C@H]([C@H](O)[C@H](O)CO)OC(C(=O)O)=C[C@@H]1NC(=N)N` [Zanamivir hydrate] stands 0.899 ± 0.15; under `CCOc1cc(CC(=O)N[C@@H](CC(C)C)c2ccccc2N2CCCCC2)ccc1C(=O)O` [Repaglinide], 1.18 ± 0.33.

Turning to `CCn1cc(C(=O)O)c(=O)c2cc(F)c(N3CCN(C)CC3)cc21` [Pefloxacin mesylate], the transfection efficiency was determined as 1.55 ± 0.28.
